Reference: the supplement of paper PMC10849652
This is one part of the list.

Amino acid sequences for entries named in this document (tags omitted). A change or cut given only in a name is not applied to a line headed by its entry.
UniProt O14950, whole entry, looked up: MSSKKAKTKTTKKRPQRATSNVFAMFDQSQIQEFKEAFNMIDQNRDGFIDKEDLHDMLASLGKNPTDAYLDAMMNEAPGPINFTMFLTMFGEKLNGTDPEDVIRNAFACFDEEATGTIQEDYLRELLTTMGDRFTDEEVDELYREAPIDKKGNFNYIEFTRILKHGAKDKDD
UniProt Q6XQN6: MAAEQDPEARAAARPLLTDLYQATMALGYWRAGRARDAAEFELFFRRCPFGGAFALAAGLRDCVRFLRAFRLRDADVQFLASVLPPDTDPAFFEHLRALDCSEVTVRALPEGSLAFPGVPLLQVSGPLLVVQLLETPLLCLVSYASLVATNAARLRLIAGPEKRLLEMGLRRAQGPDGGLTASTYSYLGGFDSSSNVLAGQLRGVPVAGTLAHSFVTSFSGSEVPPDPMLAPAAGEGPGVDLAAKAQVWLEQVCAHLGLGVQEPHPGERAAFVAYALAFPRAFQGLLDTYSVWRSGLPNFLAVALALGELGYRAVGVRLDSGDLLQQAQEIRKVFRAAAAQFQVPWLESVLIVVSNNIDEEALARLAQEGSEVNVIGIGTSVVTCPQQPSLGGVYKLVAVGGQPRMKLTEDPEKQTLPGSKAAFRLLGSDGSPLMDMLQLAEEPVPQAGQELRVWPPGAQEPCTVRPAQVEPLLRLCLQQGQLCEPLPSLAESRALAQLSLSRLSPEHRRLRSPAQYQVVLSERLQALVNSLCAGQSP
UniProt Q69YL0: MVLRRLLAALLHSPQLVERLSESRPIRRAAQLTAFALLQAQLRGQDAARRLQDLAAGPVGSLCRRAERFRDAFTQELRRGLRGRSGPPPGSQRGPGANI
UniProt P55209: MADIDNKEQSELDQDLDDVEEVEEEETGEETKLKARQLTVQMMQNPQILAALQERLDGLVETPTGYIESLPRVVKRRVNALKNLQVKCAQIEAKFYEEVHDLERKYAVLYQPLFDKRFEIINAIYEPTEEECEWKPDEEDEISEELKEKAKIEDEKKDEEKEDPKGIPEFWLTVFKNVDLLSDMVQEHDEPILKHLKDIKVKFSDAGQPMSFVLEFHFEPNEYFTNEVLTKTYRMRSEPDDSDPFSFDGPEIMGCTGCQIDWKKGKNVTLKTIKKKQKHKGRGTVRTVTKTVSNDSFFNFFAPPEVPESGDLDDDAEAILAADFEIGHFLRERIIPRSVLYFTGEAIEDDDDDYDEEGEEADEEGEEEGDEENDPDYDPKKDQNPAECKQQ
UniProt Q15596: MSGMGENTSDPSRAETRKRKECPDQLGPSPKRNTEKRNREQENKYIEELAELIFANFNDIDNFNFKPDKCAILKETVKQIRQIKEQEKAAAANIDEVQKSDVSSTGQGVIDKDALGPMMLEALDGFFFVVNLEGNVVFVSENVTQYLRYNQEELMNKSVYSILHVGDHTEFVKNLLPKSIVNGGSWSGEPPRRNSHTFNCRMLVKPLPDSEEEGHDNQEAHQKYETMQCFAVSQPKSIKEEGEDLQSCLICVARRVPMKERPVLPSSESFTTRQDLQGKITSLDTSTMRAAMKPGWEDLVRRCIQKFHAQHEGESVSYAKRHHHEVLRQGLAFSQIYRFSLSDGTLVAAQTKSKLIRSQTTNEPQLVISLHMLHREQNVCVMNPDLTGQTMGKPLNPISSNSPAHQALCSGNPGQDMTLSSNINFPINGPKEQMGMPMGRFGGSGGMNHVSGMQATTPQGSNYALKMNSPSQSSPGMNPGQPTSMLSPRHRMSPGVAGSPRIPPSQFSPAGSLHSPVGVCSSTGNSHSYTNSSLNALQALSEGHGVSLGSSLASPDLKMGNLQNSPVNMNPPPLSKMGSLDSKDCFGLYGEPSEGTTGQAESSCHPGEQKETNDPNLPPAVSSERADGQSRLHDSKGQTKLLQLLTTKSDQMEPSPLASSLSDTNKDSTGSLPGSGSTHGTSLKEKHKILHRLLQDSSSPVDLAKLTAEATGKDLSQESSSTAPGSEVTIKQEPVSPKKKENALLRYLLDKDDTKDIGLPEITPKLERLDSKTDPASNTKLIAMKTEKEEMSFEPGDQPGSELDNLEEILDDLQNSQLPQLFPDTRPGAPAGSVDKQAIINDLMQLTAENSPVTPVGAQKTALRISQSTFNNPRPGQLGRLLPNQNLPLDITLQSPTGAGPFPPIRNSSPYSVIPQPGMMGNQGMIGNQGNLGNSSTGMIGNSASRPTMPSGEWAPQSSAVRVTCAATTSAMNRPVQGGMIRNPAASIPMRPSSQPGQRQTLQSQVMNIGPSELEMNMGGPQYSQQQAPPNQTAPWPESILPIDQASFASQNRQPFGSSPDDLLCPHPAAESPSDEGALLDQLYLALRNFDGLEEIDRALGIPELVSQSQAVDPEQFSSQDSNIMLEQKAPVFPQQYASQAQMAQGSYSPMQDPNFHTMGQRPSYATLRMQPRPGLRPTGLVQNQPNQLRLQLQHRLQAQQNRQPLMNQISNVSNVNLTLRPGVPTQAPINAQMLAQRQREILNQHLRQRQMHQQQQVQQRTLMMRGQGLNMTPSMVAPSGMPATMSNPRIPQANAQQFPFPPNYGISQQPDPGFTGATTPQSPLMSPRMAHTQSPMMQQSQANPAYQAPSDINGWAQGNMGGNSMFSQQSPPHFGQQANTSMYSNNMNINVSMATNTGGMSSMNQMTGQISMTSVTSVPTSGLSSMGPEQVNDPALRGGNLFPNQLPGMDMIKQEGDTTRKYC
UniProt Q96NT1: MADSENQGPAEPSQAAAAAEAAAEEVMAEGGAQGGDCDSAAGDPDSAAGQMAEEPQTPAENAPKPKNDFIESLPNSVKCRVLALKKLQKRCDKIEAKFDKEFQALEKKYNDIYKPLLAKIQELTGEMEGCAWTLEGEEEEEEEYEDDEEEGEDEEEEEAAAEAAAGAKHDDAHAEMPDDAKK
UniProt Q9BTX1: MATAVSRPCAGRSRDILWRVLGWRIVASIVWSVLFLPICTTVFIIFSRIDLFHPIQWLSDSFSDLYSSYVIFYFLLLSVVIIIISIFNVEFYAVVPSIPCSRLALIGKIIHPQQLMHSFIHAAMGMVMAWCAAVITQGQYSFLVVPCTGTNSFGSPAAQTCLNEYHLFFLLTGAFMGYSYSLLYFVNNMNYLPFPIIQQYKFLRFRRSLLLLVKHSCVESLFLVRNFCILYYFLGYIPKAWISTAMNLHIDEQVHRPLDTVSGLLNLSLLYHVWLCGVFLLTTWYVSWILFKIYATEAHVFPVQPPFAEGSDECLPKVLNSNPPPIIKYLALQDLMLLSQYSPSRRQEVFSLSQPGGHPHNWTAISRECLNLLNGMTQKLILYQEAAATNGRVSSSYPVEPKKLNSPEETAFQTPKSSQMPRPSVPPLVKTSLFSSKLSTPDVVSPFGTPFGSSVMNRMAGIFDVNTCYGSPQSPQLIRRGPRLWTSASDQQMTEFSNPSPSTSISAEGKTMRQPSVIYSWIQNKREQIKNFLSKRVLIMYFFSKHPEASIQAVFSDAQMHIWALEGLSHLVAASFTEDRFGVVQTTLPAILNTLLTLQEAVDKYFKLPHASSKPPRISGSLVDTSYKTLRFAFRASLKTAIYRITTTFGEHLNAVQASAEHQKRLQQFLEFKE
UniProt P53602: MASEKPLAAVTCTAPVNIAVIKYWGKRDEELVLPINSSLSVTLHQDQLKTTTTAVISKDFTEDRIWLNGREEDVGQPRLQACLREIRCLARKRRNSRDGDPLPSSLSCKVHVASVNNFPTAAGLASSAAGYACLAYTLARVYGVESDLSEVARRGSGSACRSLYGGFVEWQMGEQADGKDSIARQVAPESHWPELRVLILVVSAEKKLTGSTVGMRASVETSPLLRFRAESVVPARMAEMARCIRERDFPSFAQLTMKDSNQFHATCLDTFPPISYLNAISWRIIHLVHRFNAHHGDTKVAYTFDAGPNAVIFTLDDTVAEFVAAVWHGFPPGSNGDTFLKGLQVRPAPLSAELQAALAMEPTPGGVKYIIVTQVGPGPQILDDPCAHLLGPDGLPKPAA
UniProt Q9H115: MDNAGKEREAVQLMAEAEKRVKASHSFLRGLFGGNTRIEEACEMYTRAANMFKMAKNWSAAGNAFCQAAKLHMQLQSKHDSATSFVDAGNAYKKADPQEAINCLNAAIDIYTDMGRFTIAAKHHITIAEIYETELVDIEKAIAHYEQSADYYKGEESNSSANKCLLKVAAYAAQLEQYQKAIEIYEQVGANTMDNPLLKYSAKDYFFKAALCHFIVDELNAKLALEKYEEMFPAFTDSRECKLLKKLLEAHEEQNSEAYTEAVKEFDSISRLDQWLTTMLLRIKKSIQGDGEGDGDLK
UniProt P43490: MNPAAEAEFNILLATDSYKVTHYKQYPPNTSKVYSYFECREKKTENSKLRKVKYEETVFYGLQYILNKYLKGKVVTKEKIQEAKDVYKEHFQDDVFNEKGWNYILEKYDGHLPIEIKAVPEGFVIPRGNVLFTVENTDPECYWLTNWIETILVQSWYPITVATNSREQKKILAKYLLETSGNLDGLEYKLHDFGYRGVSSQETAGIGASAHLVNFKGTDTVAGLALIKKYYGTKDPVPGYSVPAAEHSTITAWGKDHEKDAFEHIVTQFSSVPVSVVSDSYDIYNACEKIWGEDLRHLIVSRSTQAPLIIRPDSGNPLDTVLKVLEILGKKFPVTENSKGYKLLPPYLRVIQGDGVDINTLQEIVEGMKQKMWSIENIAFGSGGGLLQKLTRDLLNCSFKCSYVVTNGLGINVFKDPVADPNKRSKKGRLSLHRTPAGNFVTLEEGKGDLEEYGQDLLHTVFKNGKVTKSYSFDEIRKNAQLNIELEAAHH
UniProt Q8NI08: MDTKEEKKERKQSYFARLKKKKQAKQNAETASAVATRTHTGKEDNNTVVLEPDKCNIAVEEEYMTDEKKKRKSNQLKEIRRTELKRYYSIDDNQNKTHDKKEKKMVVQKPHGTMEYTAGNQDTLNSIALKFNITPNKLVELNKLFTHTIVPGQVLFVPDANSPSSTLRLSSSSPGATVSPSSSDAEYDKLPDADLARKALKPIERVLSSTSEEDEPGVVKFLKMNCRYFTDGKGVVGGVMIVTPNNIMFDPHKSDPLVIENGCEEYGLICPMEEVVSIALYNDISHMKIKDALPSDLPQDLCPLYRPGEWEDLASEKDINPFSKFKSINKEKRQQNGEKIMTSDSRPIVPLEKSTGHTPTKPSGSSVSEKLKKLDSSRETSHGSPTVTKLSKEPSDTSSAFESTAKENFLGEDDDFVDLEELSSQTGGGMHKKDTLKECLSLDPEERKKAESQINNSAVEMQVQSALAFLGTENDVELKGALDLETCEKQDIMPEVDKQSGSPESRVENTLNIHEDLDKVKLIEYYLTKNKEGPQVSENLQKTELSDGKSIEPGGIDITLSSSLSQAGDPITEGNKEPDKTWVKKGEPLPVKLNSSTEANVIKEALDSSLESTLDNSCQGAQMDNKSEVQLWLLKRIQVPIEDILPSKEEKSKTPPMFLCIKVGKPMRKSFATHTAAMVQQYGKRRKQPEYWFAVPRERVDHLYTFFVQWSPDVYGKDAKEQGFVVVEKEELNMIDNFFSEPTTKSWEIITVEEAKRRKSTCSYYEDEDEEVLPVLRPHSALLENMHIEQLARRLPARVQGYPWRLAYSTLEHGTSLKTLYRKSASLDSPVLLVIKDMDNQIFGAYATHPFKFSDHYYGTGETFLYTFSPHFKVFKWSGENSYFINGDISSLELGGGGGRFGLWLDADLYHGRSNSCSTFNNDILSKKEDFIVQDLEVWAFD
UniProt Q03426, whole entry, looked up: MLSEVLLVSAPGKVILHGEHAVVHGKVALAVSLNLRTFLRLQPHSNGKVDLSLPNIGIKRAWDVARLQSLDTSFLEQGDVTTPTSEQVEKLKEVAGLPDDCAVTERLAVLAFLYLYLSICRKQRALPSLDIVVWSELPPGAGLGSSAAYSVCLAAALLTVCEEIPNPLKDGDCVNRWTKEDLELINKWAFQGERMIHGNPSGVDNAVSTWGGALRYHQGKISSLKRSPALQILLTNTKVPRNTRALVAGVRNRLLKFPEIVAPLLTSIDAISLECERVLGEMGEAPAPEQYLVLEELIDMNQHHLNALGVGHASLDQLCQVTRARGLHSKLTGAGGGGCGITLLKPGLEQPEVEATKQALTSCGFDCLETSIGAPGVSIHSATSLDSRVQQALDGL
UniProt Q9NR45: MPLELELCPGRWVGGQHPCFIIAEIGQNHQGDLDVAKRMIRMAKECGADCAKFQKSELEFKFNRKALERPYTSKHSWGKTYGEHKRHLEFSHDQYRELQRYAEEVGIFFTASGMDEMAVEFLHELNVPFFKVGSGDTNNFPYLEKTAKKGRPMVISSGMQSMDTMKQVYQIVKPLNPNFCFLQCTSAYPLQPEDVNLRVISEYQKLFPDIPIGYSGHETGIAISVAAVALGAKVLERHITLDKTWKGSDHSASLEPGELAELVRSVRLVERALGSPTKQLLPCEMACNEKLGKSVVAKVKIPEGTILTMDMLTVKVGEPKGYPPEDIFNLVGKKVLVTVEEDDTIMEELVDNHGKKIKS

Experiments:
Assay in all cases: log2 fold change, soluble protein after heating vs DMSO (PISA); higher = thermal stabilisation; K562 lysate, 10 uM; active = over 0.2 and 3.5 SD of the protein, either way, in both replicates (recomputed)
[1] = compound: C=CC(=O)N1CCC[C@@H](n2nc(-c3ccc(Oc4ccccc4)cc3)c3c(N)ncnc32)C1 [ibrutinib]
In short: (§1)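 Soluble protein was defined as the supernatant remaining after 21,000xg for 90 min, following pooling of heated aliquots and adjustment to 0.5% NP-40 at 4°C. Before that, crude K562 extract at 1 mg/mL protein in PBS pH 7.4 with 1 mM MgCl2 was treated with 10 μM compound for 30 min and heated for 3 min across 48°C-58°C. Quantification used TMTpro 16plex LC-MS/MS with channel sums equalised, and values are log-two fold changes in thermal stability relative to solvent controls from duplicates.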

[2] = compound: CC(=O)c1cnc2ccc(-c3cc(Cl)c(O)c(Cl)c3)nc2c1N[C@H]1CC[C@H](CN(C)C)CC1
In short: as §1

[3] = compound: CC(C)(C)Cn1c(N)nc2ccc(-c3[nH]c(C(C)(C)C)nc3-c3ccc(F)cc3)nc21 [ralimetinib]
In short: as §1

[4] = compound: CC(C)(O)CC(=O)NCCn1ccc2ncnc(Nc3ccc(Oc4cccc(C(F)(F)F)c4)c(Cl)c3)c21
In short: as §1

[5] = compound: CC(C)C1=C2N=C(C=C(N2N=C1)NCC3=CC=CC=C3)NCCCCCCN
In short: as §1

[6] = compound: CC1=C(C(CC(=O)N1)C2=CC=C(C=C2)C(F)(F)F)C(=O)NC3=C(C=C4C(=C3)C=NN4)F
In short: as §1

[7] = compound: CC1=C(C2=C(C=C1)C(=O)C3=CC=CC=C3N2CCCN)C
In short: as §1

[8] = compound: CC1=C(C=C(C=C1)NC(=O)C2=CC(=CC=C2)C(C)(C)C#N)NC3=CC4=C(C=C3)N=CN(C4=O)C
In short: as §1

[9] = compound: CC1=C(C=C(C=C1)NC(=O)C2=CC(=CC=C2)N(C)C)NC(=O)C3=CC=C(C=C3)O
In short: as §1

[10] = compound: CC1=CC=C(C=C1)SC2=C3C=C(SC3=CN=C2)C(=O)N
In short: as §1

[11] = compound: CCCS(=O)(=O)Nc1ccc(F)c(C(=O)c2c[nH]c3ncc(-c4ccc(Cl)cc4)cc23)c1F [vemurafenib]
In short: as §1

[12] = compound: CCCS(=O)(=O)Nc1ccc(F)c(C(=O)c2c[nH]c3ncc(Cl)cc23)c1F
In short: as §1

[13] = compound: CCN(CCCOc1ccc2c(Nc3cc(CC(=O)Nc4cccc(F)c4)[nH]n3)ncnc2c1)CCOP(=O)(O)O [barasertib]
In short: as §1

[14] = compound: CC[C@@H]1C(=O)N(C)c2cnc(Nc3ccc(C(=O)NC4CCN(C)CC4)cc3OC)nc2N1C1CCCC1
In short: as §1

[15] = compound: CC[C@@H]1C(=O)N(C)c2cnc(Nc3ccc(C(=O)N[C@H]4CC[C@H](N5CCN(CC6CC6)CC5)CC4)cc3OC)nc2N1C(C)C [volasertib]
In short: as §1

[16] = compound: CCn1c(C(=O)N(C2CC2)C2CC2)cc2c3c(ncn3C)c(Nc3cc(C)n(C)n3)nc21
In short: as §1

[17] = compound: CCn1cc(-c2ccnc3[nH]c(-c4cccc(CN(C)C)c4)cc23)c(-c2ccc(NC(=O)N(C)C)cc2)n1
In short: as §1

[18] = compound: CN1CCC(CNc2ccc3ncc(-c4cccc(OC(F)(F)F)c4)n3n2)CC1
In short: as §1

[19] = compound: CN1CCN(CCOc2cc(OC3CCOCC3)c3c(Nc4c(Cl)ccc5c4OCO5)ncnc3c2)CC1 [saracatinib]
In short: as §1

[20] = compound: CN1CCN(c2nc(C3=C(c4c[nH]c5ccccc45)C(=O)NC3=O)c3ccccc3n2)CC1 [sotrastaurin]
In short: as §1

Measured: log2 fold change

NADK (UniProt O95544)
inactive: [1] -0.018 | [2] -0.021 | [3] 0.016 | [4] -0.039 | [5] -0.04 | [6] 0.001 | [7] -0.028 | [8] 0.028 | [9] 0.011 | [10] 0.016 | [11] -0.018 | [12] -0.002 | [13] 0.056 | [14] 0.017 | [15] 0.012 | [16] 0.002 | [17] -0.002 | [18] 0.047 | [19] 0.019 | [20] -0.019

MYL12B (UniProt O14950)
inactive: [1] -0.004 | [2] 0.014 | [3] -0.001 | [4] 0.005 | [5] -0.02 | [6] -0.007 | [7] 0.005 | [8] 0.036 | [9] 0 | [10] -0.005 | [11] 0 | [12] 0.02 | [13] -0.032 | [14] 0.048 | [15] -0.009 | [16] 0.026 | [17] 0.169 | [18] -0.012 | [19] 0 | [20] -0.009

NAPRT (UniProt Q6XQN6)
inactive: [1] 0.073 | [2] 0.012 | [3] 0.026 | [4] 0.042 | [5] -0.04 | [6] -0.026 | [7] 0.005 | [8] -0.01 | [9] -0.011 | [10] 0.004 | [11] -0.035 | [12] 0.001 | [13] -0.027 | [14] -0.049 | [15] 0 | [16] 0.028 | [17] 0.077 | [18] -0.032 | [19] -0.022 | [20] -0.047

NCBP2AS2 (UniProt Q69YL0)
inactive: [1] 0.04 | [2] 0.103 | [3] -0.074 | [4] -0.019 | [5] -0.048 | [6] 0.037 | [7] -0.019 | [8] 0.036 | [9] 0 | [10] -0.023 | [11] -0.047 | [12] 0.108 | [13] 0.028 | [14] -0.005 | [15] -0.002 | [16] -0.064 | [17] 0.035 | [18] -0.311 | [19] 0.103 | [20] 0

NAP1L1 (UniProt P55209)
inactive: [1] 0.048 | [2] 0.022 | [3] -0.019 | [4] -0.005 | [5] -0.007 | [6] -0.041 | [7] -0.01 | [8] 0.018 | [9] 0 | [10] -0.046 | [11] -0.001 | [12] 0.004 | [13] -0.102 | [14] 0.025 | [15] -0.019 | [16] 0.024 | [17] 0.218 | [18] -0.031 | [19] -0.003 | [20] 0.007

NCOA2 (UniProt Q15596)
inactive: [1] -0.06 | [2] 0.097 | [3] 0.01 | [4] 0.003 | [5] -0.014 | [6] 0.06 | [7] -0.027 | [8] 0.01 | [9] -0.037 | [10] -0.189 | [11] 0.072 | [12] 0.137 | [13] 0.035 | [14] -0.01 | [15] -0.059 | [16] 0.034 | [17] 0.001 | [18] 0.03 | [19] 0.036 | [20] 0.015

NAP1L5 (UniProt Q96NT1)
inactive: [1] -0.056 | [2] 0.018 | [3] -0.034 | [4] 0.034 | [5] -0.037 | [6] -0.036 | [7] -0.045 | [8] -0.13 | [9] -0.036 | [10] -0.009 | [11] -0.094 | [12] 0.005 | [13] 0.037 | [14] 0.181 | [15] -0.033 | [16] 0.052 | [18] -0.205 | [19] -0.15 | [20] 0.08
active: [17] 0.62

MYOM1 (UniProt P52179)
inactive: [1] -0.017 | [2] 0.016 | [3] 0.254 | [4] 0.026 | [5] -0.017 | [6] 0.011 | [7] -0.156 | [8] 0.052 | [9] -0.083 | [10] -0.025 | [11] 0.015 | [12] -0.082 | [13] 0.021 | [14] 0.049 | [15] 0.123 | [16] -0.356 | [17] -0.185 | [18] 0.088 | [19] -0.086 | [20] -0.163

NDC1 (UniProt Q9BTX1)
inactive: [1] 0.009 | [2] -0.02 | [3] 0.007 | [4] -0.012 | [5] -0.013 | [6] -0.009 | [7] -0.031 | [8] 0.032 | [9] 0.007 | [10] 0.072 | [11] 0.053 | [12] -0.051 | [13] 0.075 | [14] 0.081 | [15] 0.016 | [16] -0.02 | [17] -0.3 | [18] 0.155 | [19] 0.032 | [20] 0.011

NAA40 (UniProt Q86UY6)
inactive: [1] 0.023 | [2] 0.027 | [3] 0.052 | [4] -0.002 | [5] -0.044 | [6] -0.053 | [7] -0.039 | [8] -0.007 | [9] -0.033 | [10] 0.043 | [11] 0.029 | [12] -0.051 | [13] -0.029 | [14] -0.098 | [15] 0.005 | [16] -0.002 | [17] -0.088 | [18] -0.02 | [19] -0.062 | [20] 0.04

MVD (UniProt P53602)
inactive: [1] 0.02 | [2] -0.013 | [3] 0.005 | [4] -0.009 | [5] -0.005 | [6] -0.013 | [7] -0.02 | [8] 0.009 | [9] -0.007 | [10] -0.013 | [11] 0.006 | [12] -0.005 | [13] 0 | [14] 0.008 | [15] -0.022 | [16] -0.004 | [17] 0.005 | [18] -0.008 | [19] -0.014 | [20] -0.014

NAPB (UniProt Q9H115)
inactive: [1] -0.043 | [2] -0.009 | [3] -0.019 | [4] 0.025 | [5] -0.01 | [6] 0.055 | [7] 0.103 | [8] 0.02 | [9] -0.062 | [10] 0.017 | [11] 0.019 | [12] -0.022 | [13] 0.006 | [14] 0.029 | [15] 0.051 | [16] 0.033 | [17] 0.214 | [18] -0.121 | [19] -0.06 | [20] -0.052

NAMPT (UniProt P43490)
inactive: [1] 0.04 | [2] 0.008 | [3] -0.014 | [4] 0.006 | [5] -0.019 | [6] -0.023 | [7] 0.055 | [8] 0.012 | [9] -0.032 | [10] -0.001 | [11] -0.045 | [12] -0.015 | [13] -0.014 | [14] -0.036 | [15] 0.03 | [16] 0.004 | [17] 0.031 | [18] 0.116 | [19] -0.012 | [20] 0.044

NCOA7 (UniProt Q8NI08)
inactive: [1] 0 | [2] 0.016 | [3] 0.004 | [4] 0.007 | [5] 0.006 | [6] 0.003 | [7] -0.034 | [8] -0.004 | [9] -0.003 | [10] 0.01 | [11] -0.001 | [12] 0.036 | [13] -0.015 | [14] 0.018 | [15] -0.031 | [16] -0.007 | [17] 0.029 | [18] -0.044 | [19] 0.014 | [20] 0.005

MVK (UniProt Q03426)
inactive: [1] 0.013 | [2] -0.028 | [3] 0 | [4] -0.017 | [5] -0.011 | [6] 0.002 | [7] 0.001 | [8] -0.007 | [9] 0.004 | [10] -0.038 | [11] 0.007 | [12] 0.002 | [13] -0.025 | [14] -0.031 | [15] -0.024 | [16] 0.001 | [17] -0.098 | [18] 0.083 | [19] 0.012 | [20] 0.067

NANS (UniProt Q9NR45)
inactive: [1] 0.014 | [2] 0.006 | [3] 0.019 | [4] 0.012 | [5] 0.002 | [6] -0.012 | [7] 0.021 | [8] -0.012 | [9] 0.008 | [10] -0.001 | [11] -0.038 | [12] 0.007 | [13] -0.046 | [14] -0.004 | [15] -0.016 | [16] -0.001 | [17] -0.034 | [18] 0.027 | [19] -0.018 | [20] -0.057

Two neighbouring entries already listed, quoted:
NCOA7 (UniProt Q8NI08)
inactive: [1] 0 | [2] 0.016 | [3] 0.004 | [4] 0.007 | [5] 0.006 | [6] 0.003 | [7] -0.034 | [8] -0.004 | [9] -0.003 | [10] 0.01 | [11] -0.001 | [12] 0.036 | [13] -0.015 | [14] 0.018 | [15] -0.031 | [16] -0.007 | [17] 0.029 | [18] -0.044 | [19] 0.014 | [20] 0.005

MVK (UniProt Q03426)
inactive: [1] 0.013 | [2] -0.028 | [3] 0 | [4] -0.017 | [5] -0.011 | [6] 0.002 | [7] 0.001 | [8] -0.007 | [9] 0.004 | [10] -0.038 | [11] 0.007 | [12] 0.002 | [13] -0.025 | [14] -0.031 | [15] -0.024 | [16] 0.001 | [17] -0.098 | [18] 0.083 | [19] 0.012 | [20] 0.067
